Experimental data from article PMC6597546, “Identification of a potent benzoxaborole drug candidate for treating cryptosporidiosis” (Nature Communications, 2019).
Values joined by “and” are separate entries in the source; they are usually repeats but may differ in a detail not shown here. Equal values may be shown once. Further values from the same series stand in other lists.

Test system: C. parvum (Bunch Grass Farms Iowa isolate)
Assay: Time-kill curve assay in HCT-8 cells
Format: cell-based, Cryptosporidium parvum
Procedure: The invasion assay, DNA replication assay, asexual to sexual stage conversion, and time-kill curve assays were performed using fluorescence microscopy to enumerate parasites and host cell nuclei. Staining protocols are individually described for each assay. Unless noted otherwise, the details of image acquisition were as follows. An inverted Nikon Eclipse Ti2000 microscope with an automated stage and Perfect Focus was used with NIS-Elements Advanced Research software (Nikon, USA, version 4.30.01) to image the wells. The microscope was programmed to focus on the center of each well and then take a 3 × 3 composite image per well using a 20 × (0.45 NA) objective. Images were exported as .tiff files and parasites and host nuclei counted using a custom macro on ImageJ (National Institutes of Health, version 1.52a). Data were analyzed using Microsoft Excel and GraphPad Prism (version 6.01). […] C. parvum Iowa isolate oocysts (Bunch Grass Farms, Deary, ID) were treated to induce excystation and added to >90% confluent HCT-8 cells in 384-well plates. […] The monolayers were then washed, fixed, and stained with Vicia villosa lectin and DAPI at the indicated time points, and imaged as for the C. parvum growth assay. Separate 384-well plates were used for each time point. Parasite numbers were normalized to host cell nucleus numbers and expressed as the percentage of host cells infected. Drug-induced parasite decay was isolated from the reduction in parasites over time that occurs spontaneously in the HCT-8 culture system by expressing the number of parasites as the percentage of the number of parasites present at each time point under control (DMSO-treated) conditions.

| SMILES | % Parasite / host nuclei (compound at 3 x EC90, 6 h exposure, listed as Nitazonxanide) [%] | % Parasite / host nuclei (compound at 3 x EC90, 12 h exposure, listed as Nitazonxanide) | % Parasite / host nuclei (compound at 6 x EC90, 12 h exposure, listed as Nitazonxanide) | % Parasite / host nuclei (compound at 9 x EC90, 12 h exposure, listed as Nitazonxanide) | % Parasite / host nuclei (compound at 12 x EC90, 12 h exposure, listed as Nitazonxanide) | % Parasite / host nuclei (compound at EC50, 12 h exposure, listed as Nitazonxanide) | % Parasite / host nuclei (compound at EC90, 6 h exposure, listed as Nitazonxanide) | % Parasite / host nuclei (compound at EC90, 12 h exposure, listed as Nitazonxanide) | % Parasite / host nuclei (compound at 3 x EC90, 6 h exposure) [%] | % Parasite / host nuclei (compound at 3 x EC90, 12 h exposure) | % Parasite / host nuclei (compound at 6 x EC90, 12 h exposure) | % Parasite / host nuclei (compound at 9 x EC90, 6 h exposure) | % Parasite / host nuclei (compound at 9 x EC90, 12 h exposure) | % Parasite / host nuclei (compound at 12 x EC90, 6 h exposure) | % Parasite / host nuclei (compound at 12 x EC90, 12 h exposure) | % Parasite / host nuclei (compound at EC50, 6 h exposure) | % Parasite / host nuclei (compound at EC50, 12 h exposure) | % Parasite / host nuclei (compound at EC90, 6 h exposure) | % Parasite / host nuclei (compound at EC90, 12 h exposure) |
| --- | --- | --- | --- | --- | --- | --- | --- | --- | --- | --- | --- | --- | --- | --- | --- | --- | --- | --- | --- |
| CC(=O)Oc1ccccc1C(=O)Nc1ncc([N+](=O)[O-])s1 [Nitazoxanide, nitazoxanide] | 23.29 | 24.13% and 29.86% and 23.25% and 24.87% | 29.56% and 23.62% and 27.4% and 20.87% | 27.47% and 30.43% and 30.17% and 34.13% | 25.49% and 32.12% and 27.1% and 28.94% | 46.32% and 29.88% and 53.87% and 51.85% | 20.94% and 34.36% and 33.38% | 33.04% and 24.61% and 32.15% and 25.85% |  |  |  |  |  |  |  |  |  |  |  |
| CC1(C)OB(O)c2cc(NC(=O)c3ccc(-n4cccn4)cc3Cl)ccc21 [AN7973] |  |  |  |  |  |  |  |  | 26.45 | 33.04% and 36.63% and 39.78% and 37.64% | 29.11% and 26.03% and 30.41% and 37.79% | 29.26% and 27.55% and 32.23% and 31.50% | 21.29% and 35.19% and 39.07% and 30.31% | 26.76% and 19.40% and 23.35% and 28.45% | 29.59% and 27.46% and 23.71% and 31.24% | 24.93% and 26.16% and 26.01% | 44.90% and 35.42% and 25.97% and 46.95% | 27.68% and 21.40% and 34.02% and 23.52% | 32.30% and 38.76% and 39.12% and 37.77% |
